First the molecules themselves.
B1: USP11 (protein, UniProt P51784 1-963, looked up)
Ubiquitin carboxyl-terminal …: MAVAPRLFGGLCFRFRDQNPEVAVEGRLPISHSCVGCRRERTAMATVAANPAAAAAAVAAAAAVTEDREPQHEELPGLDSQWRQIENGESGRERPLRAGESWFLVEKHWYKQWEAYVQGGDQDSSTFPGCINNATLFQDEINWRLKEGLVEGEDYVLLPAAAWHYLVSWYGLEHGQPPIERKVIELPNIQKVEVYPVELLLVRHNDLGKSHTVQFSHTDSIGLVLRTARERFLVEPQEDTRLWAKNSEGSLDRLYDTHITVLDAALETGQLIIMETRKKDGTWPSAQLHVMNNNMSEEDEDFKGQPGICGLTNLGNTCFMNSALQCLSNVPQLTEYFLNNCYLEELNFRNPLGMKGEIAEAYADLVKQAWSGHHRSIVPHVFKNKVGHFASQFLGYQQHDSQELLSFLLDGLHEDLNRVKKKEYVELCDAAGRPDQEVAQEAWQNHKRRNDSVIVDTFHGLFKSTLVCPDCGNVSVTFDPFCYLSVPLPISHKRVLEVFFIPMDPRRKPEQHRLVVPKKGKISDLCVALSKHTGISPERMMVADVFSHRFYKLYQLEEPLSSILDRDDIFVYEVSGRIEAIEGSREDIVVPVYLRERTPARDYNNSYYGLMLFGHPLLVSVPRDRFTWEGLYNVLMYRLSRYVTKPNSDDEDDGDEKEDDEEDKDDVPGPSTGGSLRDPEPEQAGPSSGVTNRCPFLLDNCLGTSQWPPRRRRKQLFTLQTVNSNGTSDRTTSPEEVHAQPYIAIDWEPEMKKRYYDEVEAEGYVKHDCVGYVMKKAPVRLQECIELFTTVETLEKENPWYCPSCKQHQLATKKLDLWMLPEILIIHLKRFSYTKFSREKLDTLVEFPIRDLDFSEFVIQPQNESNPELYKYDLIAVSNHYGGMRDGHYTTFACNKDSGQWHYFDDNSVSPVNENQIESKAAYVLFYQRQDVARRLLSPAGSSGAPASPACSSPPSSEFMDVN
B2: DDX56 (protein, UniProt Q9NY93 1-547, looked up)
Probable ATP-dependent RNA …: MEDSEALGFEHMGLDPRLLQAVTDLGWSRPTLIQEKAIPLALEGKDLLARARTGSGKTAAYAIPMLQLLLHRKATGPVVEQAVRGLVLVPTKELARQAQSMIQQLATYCARDVRVANVSAAEDSVSQRAVLMEKPDVVVGTPSRILSHLQQDSLKLRDSLELLVVDEADLLFSFGFEEELKSLLCHLPRIYQAFLMSATFNEDVQALKELILHNPVTLKLQESQLPGPDQLQQFQVVCETEEDKFLLLYALLKLSLIRGKSLLFVNTLERSYRLRLFLEQFSIPTCVLNGELPLRSRCHIISQFNQGFYDCVIATDAEVLGAPVKGKRRGRGPKGDKASDPEAGVARGIDFHHVSAVLNFDLPPTPEAYIHRAGRTARANNPGIVLTFVLPTEQFHLGKIEELLSGENRGPILLPYQFRMEEIEGFRYRCRDAMRSVTKQAIREARLKEIKEELLHSEKLKTYFEDNPRDLQLLRHDLPLHPAVVKPHLGHVPDYLVPPALRGLVRPHKKRKKLSSSCRKAKRAKSQNPLRSFKHKGKKFRPTAKPS
B3: DCAF13 (protein, UniProt Q9NV06 1-445, looked up)
DDB1- and CUL4-associated …: MKVKMLSRNPDNYVRETKLDLQRVPRNYDPALHPFEVPREYIRALNATKLERVFAKPFLASLDGHRDGVNCLAKHPEKLATVLSGACDGEVRIWNLTQRNCIRTIQAHEGFVRGICTRFCGTSFFTVGDDKTVKQWKMDGPGYGDEEEPLHTILGKTVYTGIDHHWKEAVFATCGQQVDIWDEQRTNPICSMTWGFDSISSVKFNPIETFLLGSCASDRNIVLYDMRQATPLKKVILDMRTNTICWNPMEAFIFTAANEDYNLYTFDMRALDTPVMVHMDHVSAVLDVDYSPTGKEFVSASFDKSIRIFPVDKSRSREVYHTKRMQHVICVKWTSDSKYIMCGSDEMNIRLWKANASEKLGVLTSREKAAKDYNQKLKEKFQHYPHIKRIARHRHLPKSIYSQIQEQRIMKEARRRKEVNRIKHSKPGSVPLVSEKKKHVVAVVK

In this data set the test system is BAF complex subunits and histone proteins. The experiment in a line: Mass spectrometry proteomics of purified HA-SS18 WT and HA-SS18-SSX1 complexes (Tables 5A-5E). Set-up: species or system human. The conditions noted are these: HA-SS18SSX1_CHR_peptides: proteins found in HA-SS18-SSX1 BAF complex purification from solubilized chromatin (CHR), HEK-293T.
For the molecule B1, the “Total (peptides)” value is given as 1 and the “Unique (peptides)” value was 1.
Turning to B2, the “Total (peptides)” value is recorded as 1 and the “Unique (peptides)” value is 1.
Consider B3, for which the “Total (peptides)” value was determined as 1 and the “Unique (peptides)” value came out at 1.

(Values after patent publication US20250283871A1, “COMPOSITIONS AND METHODS FOR MODULATING THE INTERACTION BETWEEN SS18-SSX FUSION ONCOPROTEIN AND NUCLEOSOMES” (Dana-Farber Cancer Institute, Inc., priority 2020, published 2025).)
